# According to the supplement of paper PMC6411743:
# By UniProt entry, the sequences of proteins in these tests, tags left out. Where a name states a change or a piece, a line headed by the entry shows the natural chain unless it says otherwise.
# UniProt Q13217: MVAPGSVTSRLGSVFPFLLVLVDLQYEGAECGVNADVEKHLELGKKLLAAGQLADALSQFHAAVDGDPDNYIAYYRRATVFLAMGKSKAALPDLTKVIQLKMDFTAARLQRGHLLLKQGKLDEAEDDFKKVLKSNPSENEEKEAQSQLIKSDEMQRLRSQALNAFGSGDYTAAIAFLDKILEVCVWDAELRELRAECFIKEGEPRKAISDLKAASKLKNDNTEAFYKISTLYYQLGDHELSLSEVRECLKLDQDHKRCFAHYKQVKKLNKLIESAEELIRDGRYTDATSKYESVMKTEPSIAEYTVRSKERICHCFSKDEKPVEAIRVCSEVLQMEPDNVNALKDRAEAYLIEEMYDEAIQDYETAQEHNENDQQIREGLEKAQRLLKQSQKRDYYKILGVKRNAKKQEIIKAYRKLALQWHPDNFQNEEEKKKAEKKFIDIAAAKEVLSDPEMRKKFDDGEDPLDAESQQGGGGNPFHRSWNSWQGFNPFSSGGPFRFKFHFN
# UniProt Q13308: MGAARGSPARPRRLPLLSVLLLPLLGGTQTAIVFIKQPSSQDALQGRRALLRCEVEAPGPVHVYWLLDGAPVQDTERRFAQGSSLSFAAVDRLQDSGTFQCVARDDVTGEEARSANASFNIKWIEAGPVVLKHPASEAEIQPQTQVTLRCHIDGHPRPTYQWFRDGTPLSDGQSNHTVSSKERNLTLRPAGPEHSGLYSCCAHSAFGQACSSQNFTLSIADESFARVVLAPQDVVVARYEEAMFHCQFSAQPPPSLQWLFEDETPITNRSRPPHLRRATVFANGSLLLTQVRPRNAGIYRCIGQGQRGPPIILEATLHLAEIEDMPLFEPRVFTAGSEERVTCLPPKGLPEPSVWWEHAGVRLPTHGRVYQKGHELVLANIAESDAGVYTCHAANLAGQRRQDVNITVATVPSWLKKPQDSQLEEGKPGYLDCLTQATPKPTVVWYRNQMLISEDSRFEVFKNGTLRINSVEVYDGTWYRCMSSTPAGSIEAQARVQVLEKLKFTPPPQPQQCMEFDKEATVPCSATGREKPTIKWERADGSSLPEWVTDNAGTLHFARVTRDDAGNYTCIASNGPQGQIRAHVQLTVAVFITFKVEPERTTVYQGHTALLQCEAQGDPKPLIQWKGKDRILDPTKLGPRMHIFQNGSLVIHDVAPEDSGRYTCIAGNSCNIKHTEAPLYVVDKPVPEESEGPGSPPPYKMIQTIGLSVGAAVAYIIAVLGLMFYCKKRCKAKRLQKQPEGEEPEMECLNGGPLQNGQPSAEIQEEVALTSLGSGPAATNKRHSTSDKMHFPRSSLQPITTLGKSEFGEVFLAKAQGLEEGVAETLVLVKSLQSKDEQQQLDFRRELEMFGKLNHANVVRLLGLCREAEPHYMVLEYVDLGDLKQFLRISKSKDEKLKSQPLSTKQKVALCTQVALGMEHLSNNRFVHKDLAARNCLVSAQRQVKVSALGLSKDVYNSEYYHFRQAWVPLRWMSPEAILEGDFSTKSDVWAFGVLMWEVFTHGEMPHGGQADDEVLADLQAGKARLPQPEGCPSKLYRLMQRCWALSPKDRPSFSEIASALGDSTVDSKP
# UniProt Q05655: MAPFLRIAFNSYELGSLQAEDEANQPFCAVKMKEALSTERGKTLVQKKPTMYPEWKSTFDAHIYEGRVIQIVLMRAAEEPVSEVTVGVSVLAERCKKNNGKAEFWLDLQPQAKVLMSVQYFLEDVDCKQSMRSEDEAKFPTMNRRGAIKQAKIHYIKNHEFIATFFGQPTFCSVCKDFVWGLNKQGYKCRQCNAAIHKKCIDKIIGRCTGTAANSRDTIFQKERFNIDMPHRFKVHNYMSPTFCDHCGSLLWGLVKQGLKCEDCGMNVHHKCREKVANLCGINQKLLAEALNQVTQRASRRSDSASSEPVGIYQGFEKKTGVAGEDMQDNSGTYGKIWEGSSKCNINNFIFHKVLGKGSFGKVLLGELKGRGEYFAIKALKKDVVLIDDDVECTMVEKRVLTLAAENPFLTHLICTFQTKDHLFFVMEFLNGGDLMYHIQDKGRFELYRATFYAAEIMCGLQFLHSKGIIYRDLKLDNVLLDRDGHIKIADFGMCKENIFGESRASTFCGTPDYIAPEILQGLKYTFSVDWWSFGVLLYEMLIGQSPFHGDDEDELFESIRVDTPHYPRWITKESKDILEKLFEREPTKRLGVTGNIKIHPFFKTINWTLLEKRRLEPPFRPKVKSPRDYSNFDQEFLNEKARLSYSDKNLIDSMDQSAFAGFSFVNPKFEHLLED
# UniProt Q12968: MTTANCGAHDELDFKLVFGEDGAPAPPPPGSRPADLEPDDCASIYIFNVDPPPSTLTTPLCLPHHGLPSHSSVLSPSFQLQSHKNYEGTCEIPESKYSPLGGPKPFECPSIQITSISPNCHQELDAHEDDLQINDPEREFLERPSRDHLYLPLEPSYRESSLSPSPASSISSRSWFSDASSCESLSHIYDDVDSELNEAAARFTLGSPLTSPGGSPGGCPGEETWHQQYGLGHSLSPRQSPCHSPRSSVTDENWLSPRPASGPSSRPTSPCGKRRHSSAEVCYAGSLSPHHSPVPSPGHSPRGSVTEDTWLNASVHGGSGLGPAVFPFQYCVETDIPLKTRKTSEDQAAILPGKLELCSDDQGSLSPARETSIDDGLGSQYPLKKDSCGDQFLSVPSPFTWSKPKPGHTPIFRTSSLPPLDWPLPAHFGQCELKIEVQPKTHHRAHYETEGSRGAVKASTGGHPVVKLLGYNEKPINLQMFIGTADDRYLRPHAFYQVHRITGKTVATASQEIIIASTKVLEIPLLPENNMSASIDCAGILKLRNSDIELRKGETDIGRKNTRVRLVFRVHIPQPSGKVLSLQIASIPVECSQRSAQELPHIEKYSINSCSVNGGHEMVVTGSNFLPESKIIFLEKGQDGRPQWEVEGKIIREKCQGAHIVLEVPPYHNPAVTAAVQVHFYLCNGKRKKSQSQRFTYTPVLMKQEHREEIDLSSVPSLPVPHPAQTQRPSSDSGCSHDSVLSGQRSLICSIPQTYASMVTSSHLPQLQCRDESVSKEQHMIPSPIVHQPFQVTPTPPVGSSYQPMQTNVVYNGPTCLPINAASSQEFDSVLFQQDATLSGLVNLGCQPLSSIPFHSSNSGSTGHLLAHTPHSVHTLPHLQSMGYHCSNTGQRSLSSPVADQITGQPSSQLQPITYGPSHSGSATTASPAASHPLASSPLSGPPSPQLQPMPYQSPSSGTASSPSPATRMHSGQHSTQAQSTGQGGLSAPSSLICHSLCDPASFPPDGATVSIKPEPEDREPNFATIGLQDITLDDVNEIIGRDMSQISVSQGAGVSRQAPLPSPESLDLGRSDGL
# UniProt Q13153, whole entry: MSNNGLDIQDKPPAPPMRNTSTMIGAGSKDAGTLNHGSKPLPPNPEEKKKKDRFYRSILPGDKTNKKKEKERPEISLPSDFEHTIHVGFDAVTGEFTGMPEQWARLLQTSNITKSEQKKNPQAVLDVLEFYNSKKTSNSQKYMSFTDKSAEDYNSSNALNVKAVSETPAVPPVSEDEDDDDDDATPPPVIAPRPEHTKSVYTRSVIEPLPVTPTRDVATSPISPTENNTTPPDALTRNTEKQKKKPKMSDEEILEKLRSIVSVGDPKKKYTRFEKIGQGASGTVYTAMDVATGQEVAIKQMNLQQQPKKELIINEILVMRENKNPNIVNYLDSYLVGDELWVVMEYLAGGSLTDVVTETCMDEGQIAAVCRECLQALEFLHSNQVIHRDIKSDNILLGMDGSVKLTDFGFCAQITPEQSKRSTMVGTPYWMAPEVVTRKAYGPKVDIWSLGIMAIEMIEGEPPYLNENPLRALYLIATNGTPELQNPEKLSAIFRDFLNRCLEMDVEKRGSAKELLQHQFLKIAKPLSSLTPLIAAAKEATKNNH
# ± gives the standard deviation of the averaged measurements. The list shows a part of the results.
# Compound: Nc1nc2c(ncn2[C@@H]2O[C@H](COP(=O)(O)OP(=O)(O)OP(=O)(O)O)[C@@H](O)[C@H]2O)c(=O)[nH]1 [guanosine triphosphate]
# Experiment: NP40-soluble protein abundance relative to vehicle (solubility fold change) (ratio); higher = more soluble protein in presence of GTP
# Method: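 Solubility proteome profiling in Jurkat crude lysate. Lysate was treated with Mg-GTP (0.1-10 mM) for 10 min at room temperature and 3 min at 37 °C, then solubilised with 0.8% NP40 and benzonase, followed by ultracentrifugation. Proteins were quantified by TMT10 LC-MS/MS; the value is the NP40-soluble abundance relative to the NP40-processed vehicle, from 3 independent experiments.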
Target,NP40-soluble protein abundance (concentration: 0.1mM),NP40-soluble protein abundance (concentration: 0.5mM),NP40-soluble protein abundance (concentration: 1mM),NP40-soluble protein abundance (concentration: 2mM),NP40-soluble protein abundance (concentration: 4mM),NP40-soluble protein abundance (concentration: 6mM),NP40-soluble protein abundance (concentration: 8mM),NP40-soluble protein abundance (concentration: 10mM)
DNAJC3 (UniProt Q13217),0.969 ± 0.058,0.9941 ± 0.0026,0.9137 ± 0.0073,0.916 ± 0.011,0.869 ± 0.033,0.931 ± 0.031,0.897 ± 0.024,0.887 ± 0.047
UniProt Q13308 and related entries,0.957 ± 0.065,0.895 ± 0.043,0.946 ± 0.067,0.91 ± 0.08,0.922 ± 0.079,0.868 ± 0.05,0.925 ± 0.078,0.883 ± 0.078
UniProt Q05655,0.978 ± 0.076,1 ± 0.037,0.98 ± 0.035,1.01 ± 0.038,0.956 ± 0.026,0.938 ± 0.056,0.933 ± 0.062,0.914 ± 0.058
UniProt Q12968 and related entries,1.02 ± 0.07,1.01 ± 0.056,1.03 ± 0.063,0.978 ± 0.054,0.989 ± 0.14,0.942 ± 0.093,1.06 ± 0.086,0.985 ± 0.091
PAK1 (UniProt Q13153),0.979 ± 0.071,0.988 ± 0.053,0.956 ± 0.048,0.944 ± 0.068,0.936 ± 0.051,0.959 ± 0.052,0.951 ± 0.049,0.974 ± 0.077
